The other results are listed elsewhere or left out.
Molecular target: T1, OsSMF1 (Oryza sativa, UniProt Q6ZLB0 1-436)
T1 sequence: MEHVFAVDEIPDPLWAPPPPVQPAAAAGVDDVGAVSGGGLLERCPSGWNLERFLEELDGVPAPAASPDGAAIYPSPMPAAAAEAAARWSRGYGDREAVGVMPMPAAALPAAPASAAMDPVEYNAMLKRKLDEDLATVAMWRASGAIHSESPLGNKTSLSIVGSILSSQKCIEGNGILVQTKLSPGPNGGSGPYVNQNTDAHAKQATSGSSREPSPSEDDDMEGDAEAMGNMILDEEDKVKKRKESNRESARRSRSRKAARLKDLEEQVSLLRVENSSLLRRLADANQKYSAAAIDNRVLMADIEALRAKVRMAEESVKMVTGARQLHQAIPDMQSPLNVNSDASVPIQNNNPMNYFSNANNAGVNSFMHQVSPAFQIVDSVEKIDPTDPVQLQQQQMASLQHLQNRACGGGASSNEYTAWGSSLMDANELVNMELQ
Assay: protein-binding microarray (RPBM); PBS, 2% BSA, 51.3 ng/ul salmon testes DNA, 50 uM zinc acetate, 200 nM TF, 25 C, 1 h; high values mean tight binding
Settings: protein: recombinant; tags: N-terminal polyhistidine and DsRed monomer fusion (pET32a); chain copies: 2; label: CyDye5-dUTP incorporated in the synthesized complementary strand; 3' TTTTT single-stranded linker to array surface; dsDNA, one strand shown
Method in brief: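 Binding signal is reported as fluorescence intensity per feature (arbitrary units) from an Axon 4000B scanner. Incubation used 200 nM of each Ni–NTA-purified, N-terminally polyhistidine- and DsRed-fused transcription factor from E. coli BL21-CodonPlus on a double-stranded custom Agilent array for 1 h at 25 °C, with 50 µM zinc acetate in the buffer, followed by washing.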

With “GCTCTGGTACTAGCCGTACGATGACGCCCAATAATTCAACCGGAGTCACCTAGTGCAG” as the sequence, how does the binding signal read?
The binding signal was 3750 fluorescence intensity (a.u.).

With “CTTCTCTCGTCTCTTCTCTTGTCACAACACAATACTGCAGCGGAGTCACCTAGTGCAG” as the sequence, how does the binding signal read?
Its binding signal is 3980 fluorescence intensity (a.u.).

For “GAAGGACCTAGAGTAAACGGTTTCTGATTTTGCTATATATCGGAGTCACCTAGTGCAG”, which binding signal is on record?
The binding signal was 3400 fluorescence intensity (a.u.).

For “CTATAGGCTCTCTACAAGAGATCCATGTCAGCATATTTTCCGGAGTCACCTAGTGCAG”, which binding signal is on record?
The binding signal was 8270 fluorescence intensity (a.u.).

For “GCTTTGGGATTATAAAGATGCACTATATAACTTGTGTCAGCGGAGTCACCTAGTGCAG”, which binding signal is on record?
The binding signal was 3290 fluorescence intensity (a.u.).

With “AACACCTTGGAGTCGGGACAGACCTGACGCGGCCGCCGGGCGGAGTCACCTAGTGCAG” as the sequence, how does the binding signal read?
Its binding signal is 4130 fluorescence intensity (a.u.).

With “GAACCGAAACCTGGGAGAGATCGAAACGAGGCTGCGTCATCGGAGTCACCTAGTGCAG” as the sequence, how does the binding signal read?
Its binding signal is 5370 fluorescence intensity (a.u.).

How did the binding signal turn out when “GGGAAGAAAGAAGATGATGATGAGGCTGACACGTGGGCCCCGGAGTCACCTAGTGCAG” was run?
Its binding signal is 14500 fluorescence intensity (a.u.).

How did the binding signal turn out when “AGCCGTCGCTTGCACGCGTCCACGTACTTTGTCAACAAATCGGAGTCACCTAGTGCAG” was run?
Its binding signal is 3660 fluorescence intensity (a.u.).

Which binding signal does the source give for “GTAGCCTCCTTATGTGTCACTGACAGTGGGCCCCACAGGACGGAGTCACCTAGTGCAG” here?
The binding signal was 4520 fluorescence intensity (a.u.).

Which binding signal does the source give for “GAACGATGACGGCGCGATGGCCGCCGCCGTGGCGCGGACGCGGAGTCACCTAGTGCAG” here?
Its binding signal is 3210 fluorescence intensity (a.u.).

Which binding signal does the source give for “GACCTAGTAGGGTGTCATTCTCACGACTTGGATGATGCTTCGGAGTCACCTAGTGCAG” here?
Its binding signal is 6070 fluorescence intensity (a.u.).

For “TTTGCCTCCTCATCTCCTTTACGTGGGCTTTTCTATCCCACGGAGTCACCTAGTGCAG”, which binding signal is on record?
Its binding signal is 5040 fluorescence intensity (a.u.).

For “TTCTGAGTGTATAATTAATGTTTATGTGGTCACGTACTTGCGGAGTCACCTAGTGCAG”, which binding signal is on record?
The binding signal was 3620 fluorescence intensity (a.u.).

How did the binding signal turn out when “CCCTCCTCTTAACTCCGCATCATCGCATCCTCTCTCTCTCCGGAGTCACCTAGTGCAG” was run?
The binding signal was 3700 fluorescence intensity (a.u.).

For “TGAAGATGAAGATTTTGGTGACACGCATTTCAAACTGCTACGGAGTCACCTAGTGCAG”, which binding signal is on record?
The binding signal was 4980 fluorescence intensity (a.u.).

With “TGCTCGTCCCAGTCTCTGCCACGTGGGCCCCACACGCACCCGGAGTCACCTAGTGCAG” as the sequence, how does the binding signal read?
The binding signal was 17700 fluorescence intensity (a.u.).

“ACTCAACAGATTAACTTAAATATGAGCCTGTTGCTGACTGCGGAGTCACCTAGTGCAG” was tested. Which binding signal did it give?
Its binding signal is 3760 fluorescence intensity (a.u.).

For “CCTGACCCACATGTCATTGACTCATGTGGGTTCTAGATGTCGGAGTCACCTAGTGCAG”, which binding signal is on record?
Its binding signal is 6670 fluorescence intensity (a.u.).

Which binding signal does the source give for “TTGAAACTAACAGGGCCTTTACCGACAAGTCAGCCCACCCCGGAGTCACCTAGTGCAG” here?
Its binding signal is 3340 fluorescence intensity (a.u.).

How did the binding signal turn out when “CTCCAATACACAATGTGTATATGACAGGTAGACCCATGTGCGGAGTCACCTAGTGCAG” was run?
Its binding signal is 3400 fluorescence intensity (a.u.).

With “TTATTTGGTGTTGTCAGGTCATATTCACCAATGAGTCGAACGGAGTCACCTAGTGCAG” as the sequence, how does the binding signal read?
Its binding signal is 3640 fluorescence intensity (a.u.).

For “AGTTGCCGGCGGTTCTCCCTAGCCGCTGACGCGTAGCTGCCGGAGTCACCTAGTGCAG”, which binding signal is on record?
The binding signal was 5650 fluorescence intensity (a.u.).

With “CATAGATTAATATGAAATATATAACTCCACAAATATGCAACGGAGTCACCTAGTGCAG” as the sequence, how does the binding signal read?
Its binding signal is 3500 fluorescence intensity (a.u.).

How did the binding signal turn out when “TGTGAAGGGTAGTAATTAAGACCCGTCATGGATGAGTGCTCGGAGTCACCTAGTGCAG” was run?
Its binding signal is 3660 fluorescence intensity (a.u.).

“CGTCACGACGGGGCCGTACTTCTTGAACAGCGTCAGCAGGCGGAGTCACCTAGTGCAG” was tested. Which binding signal did it give?
The binding signal was 6140 fluorescence intensity (a.u.).

How did the binding signal turn out when “GAAATCTACCATCATGATAATTGCATCATTCTTAGTTGCTCGGAGTCACCTAGTGCAG” was run?
Its binding signal is 3280 fluorescence intensity (a.u.).

With “AGCCCCGACCCCGATGATTGCCGCGTGGACAACCGTAGAACGGAGTCACCTAGTGCAG” as the sequence, how does the binding signal read?
The binding signal was 4190 fluorescence intensity (a.u.).

For “TGGTCGGTGCCGCACGTCACAGCCGCCAAATCATCCTCCTCGGAGTCACCTAGTGCAG”, which binding signal is on record?
Its binding signal is 8440 fluorescence intensity (a.u.).

For “ACCATTTCTTCACATCACTGGGTCTATGAAACAATTTTAGCGGAGTCACCTAGTGCAG”, which binding signal is on record?
The binding signal was 3820 fluorescence intensity (a.u.).

“CGATGTGGACAAGTGAAAGGCACTTATGTGGCAATTTGTGCGGAGTCACCTAGTGCAG” was tested. Which binding signal did it give?
The binding signal was 3760 fluorescence intensity (a.u.).

With “GTTCGTACTTCATTTCTTCTGTAGATGAAGATAGAGATAACGGAGTCACCTAGTGCAG” as the sequence, how does the binding signal read?
Its binding signal is 28000 fluorescence intensity (a.u.).

“CGAGTGGCTTTTCTTGTAAAAGAATTGCGTAATAGGCGTGCGGAGTCACCTAGTGCAG” was tested. Which binding signal did it give?
Its binding signal is 4150 fluorescence intensity (a.u.).

“AGATCCTGTAGTGCTTCATGAAGATGATCAGACAGCACATCGGAGTCACCTAGTGCAG” was tested. Which binding signal did it give?
Its binding signal is 3300 fluorescence intensity (a.u.).

How did the binding signal turn out when “CTCATCCAGCTACAGTCATCCAGAGACAGCCTGCCTCAGCCGGAGTCACCTAGTGCAG” was run?
The binding signal was 3510 fluorescence intensity (a.u.).

Which binding signal does the source give for “CTACATCGAATTTATACCGTATTAGATTACCTGATAGAGGCGGAGTCACCTAGTGCAG” here?
The binding signal was 22400 fluorescence intensity (a.u.).

For “GGCCATGTCCATACACGGCAGACTCACACAACCAACATTCCGGAGTCACCTAGTGCAG”, which binding signal is on record?
Its binding signal is 3280 fluorescence intensity (a.u.).

Which binding signal does the source give for “GCGACACGTCGCGACGCCGCTTGCCACGCGCCACGCGCGACGGAGTCACCTAGTGCAG” here?
The binding signal was 5080 fluorescence intensity (a.u.).

How did the binding signal turn out when “GTTAGATGGGTAAGTGACTCACTTACCTCACATTAGTGACCGGAGTCACCTAGTGCAG” was run?
The binding signal was 4960 fluorescence intensity (a.u.).

With “TGTCCACGTAAGTTGGGTCATCGTGCCCACGTTCTGTAATCGGAGTCACCTAGTGCAG” as the sequence, how does the binding signal read?
The binding signal was 4590 fluorescence intensity (a.u.).

Which binding signal does the source give for “GTGTATGACGTGTTGGTTTGCTGCCCGAACTTGCCATGCACGGAGTCACCTAGTGCAG” here?
The binding signal was 13200 fluorescence intensity (a.u.).

“AACCGACAAACCCTAACCCTAGCCACATCAGTCTGGAGTCCGGAGTCACCTAGTGCAG” was tested. Which binding signal did it give?
The binding signal was 3980 fluorescence intensity (a.u.).
